Measured values reported in PubChem BioAssay AID624291 (National Center for Advancing Translational Sciences (NCATS), 2012).
The whole screen tested about 350,000 compounds, of which about 220 (0.063%) were called active. The inconclusive results got no clear call from the source; some entries with a clear call stand among them for comparison. The call rests on the fitted dose curve; in most records, active means well fitted activation curve with a large enough effect; inconclusive means small, poorly fitted or top-dose-only effect; inactive means no such curve, though single readings can be large or run the other way. Potencies beside an inconclusive call are fits to weak or partial responses and may not hold up.

test: qHTS for Activators of Integrin-Mediated Alleviation for Muscular Dystrophy; conditions: alpha7betagal myoblasts, beta-gal FDG fluorescence, 48 h; activation: at 38.3 µM (top of the series); further: nearly all actives have a fitted effect of over 60% in size;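 on activation: 100% = response of the positive control SU9516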
How it was run: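 Alpha7betagal+/- myoblasts (passage 13) were plated 16-24 hr, then exposed to compounds (1:260 dilution of DMSO stock) for 48 hours at 37C. After MPER lysis, β-galactosidase reporter activity was read as FDG fluorescence (ex 480/em 540) after 30 minutes.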
Potency means the concentration at half of the fitted maximal effect.

| Compound | Potency | activation |
| --- | --- | --- |
| Cc1ccc(C(=O)NCc2ccc3c(c2)CCO3)cc1C | inactive |  |
| O=[N+]([O-])c1cccc(-c2noc3c2-c2nc(Cc4cccc5ccccc45)sc2CC3)c1 | inactive |  |
| N#C/C(=C\c1c[nH]c2ccccc12)C(=O)NCC1CCCO1 (stereo not drawn) | inconclusive: 8.91 µM [activator, single point] |  |
| COc1ccc(/C=C/C(=O)NCc2ccccn2)cc1OC | inconclusive: 5.62 µM [activator, partial curve, poor fit] |  |
| Cc1cccc(N2CC(C(=O)OCC(=O)Nc3sccc3C(N)=O)CC2=O)c1C (stereo not drawn) | inactive |  |
| CCC(=O)C1CCCN(C(=O)CCc2nnc(C3(c4ccc(Cl)cc4)CCC3)o2)C1 (stereo not drawn) | inactive |  |
| COCCNC(=O)CSc1nnc(-c2ccc(C)cc2)c(-c2ccc(C)cc2)n1 | inconclusive: 28.2 µM [activator, single point] |  |
| Cc1ccc(C2CC(=O)NC(SCC(N)=O)=C2C#N)s1 (stereo not drawn) | inconclusive: 5.01 µM [activator, single point] |  |
| CC1(C(=O)N2CCOCC2)CCCCC1 | inconclusive: 2.51 µM [activator, single point] |  |
| CN(C)S(=O)(=O)c1ccc(Cl)c(NC(=O)COC(=O)CNS(=O)(=O)c2c(F)cccc2F)c1 | inconclusive: 3.55 µM [activator, single point] |  |
| CCCn1c2ccccc2c2cnn(CC(=O)N3CCOCC3)c(=O)c21 | inconclusive: 2.24 µM [activator, partial curve, poor fit] |  |
| CC(=O)N(C)c1ccc(N=Cc2c(O)ccc3ccccc23)cc1 | inactive |  |
| O=c1c2c(nc3n1CCCCC3)-c1ccccc1CC21CCCC1 | inactive |  |
| CCC(C)Nc1nnc(SCC(=O)c2c(N)n(C3CC3)c(=O)[nH]c2=O)s1 (stereo not drawn) | inconclusive: 5.62 µM [activator, partial curve, poor fit] |  |
| C=CCCC(=O)N1CCCC(C(=O)c2cccc(OC)c2)C1 (stereo not drawn) | inconclusive: 0.891 µM [activator, full curve, poor fit] |  |
| Cc1cccc(Oc2ccc(NC(=O)C3CC=CCC3C(=O)O)cc2)c1 (stereo not drawn) |  | inconclusive: -21.8% [activator] |
| COc1ccc(C(=O)Nc2ccc(N3CCN(C)CC3)cc2)cc1 | inconclusive: 12.6 µM [activator, single point] |  |
| COc1ccccc1C(CNC(=O)C(CCSC)NS(=O)(=O)c1ccccc1F)N1CCCC1 (stereo not drawn) | inconclusive: 1.78 µM [activator, single point] |  |
| Cc1ccc(C(C)C)c(OCCCn2ccnc2C)c1 | inconclusive: 2 µM [activator, single point] |  |
| CC(=O)c1cccc(NC(=O)COc2ccccc2)c1 | inconclusive: 5.01 µM [activator, single point] |  |
| O=C(N/N=C/c1ccc(-c2ccccc2[N+](=O)[O-])o1)c1cccnc1 | inactive |  |
| COc1ccc(NC(=O)c2cc(C)on2)cc1 | inconclusive: 12.6 µM [activator, partial curve, poor fit] |  |

| Compound | Potency | activation |
| --- | --- | --- |
| N#C/C(=C\c1ccc(-c2ccc(C(=O)O)cc2)o1)C(=O)Nc1ccc(F)cc1 | inconclusive: 28.2 µM [activator, single point] |  |
| CC(=O)N1C(=O)/C(=C2\SC(=S)N(NS(=O)(=O)c3ccc(C)cc3)C2=O)c2ccccc21 | inconclusive: 0.501 µM [activator, full curve, poor fit] |  |
| COc1ccc(S(=O)(=O)N2CCc3ccccc32)cc1C(=O)Nc1ccc(C(N)=O)cc1 | inconclusive: 28.2 µM [activator, single point] |  |
| CCOC(=O)c1nn(-c2ccccc2)c(-c2ccccc2)c1C(=O)c1ccccc1 | inactive |  |
| CN(Cc1ccc(Cl)c(Cl)c1)C(=O)C1CSC2(C)CCC(=O)N12 (stereo not drawn) | inconclusive: 3.55 µM [activator, partial curve, poor fit] |  |
| CN(C)c1ccc(Nc2ccc([N+](=O)[O-])cn2)cc1 | inconclusive: 3.98 µM [activator, partial curve, poor fit] |  |
| CC(CCc1ccccc1)NCc1ccncc1 (stereo not drawn) | inactive |  |
| COc1ccc(NC(=O)C2CCCN2C(=O)Nc2ccc(OC)cc2)cc1 (stereo not drawn) | inconclusive: 7.94 µM [activator, partial curve] |  |
| COC(=O)c1c(-c2ccccc2)c[nH]c1C | inconclusive: 10 µM [activator, partial curve, poor fit] |  |
| CNC(=S)N/N=C/c1c(C)nn(-c2cccc(Cl)c2)c1Cl | inconclusive: 2.51 µM [activator, partial curve, poor fit] |  |
| O=C(NCc1ccncc1)c1ccc(Cn2cc(C(F)(F)F)ccc2=O)cc1 | inconclusive: 3.55 µM [activator, partial curve, poor fit] |  |
| CC(=O)c1ccc(OCCCC(=O)Nc2cc(S(=O)(=O)N(C)C)ccc2C)cc1 | inactive |  |
| CC1=CC(c2ccccc2)n2nnnc2N1 (stereo not drawn) | inconclusive: 5.62 µM [activator, single point] |  |
| CCOc1ccc(CN2CCN(Cc3ccc(C)o3)CC2CCO)cc1 (stereo not drawn) | inconclusive: 25.1 µM [activator, single point] |  |
| CSc1nc2nc3c(cn2n1)C(=O)CC(c1ccccc1)C3 (stereo not drawn) | inactive |  |
| CSc1nc2c(c(=O)n1-c1ccccc1)SCC2 | inactive |  |
| CC1(NC(=O)c2cc(-c3cccs3)nn2-c2ccccc2)CCS(=O)(=O)C1 (stereo not drawn) | inconclusive: 2.24 µM [activator, partial curve, poor fit] |  |
| O=C(CC(=O)Nc1cccc(F)c1)Nc1cccc(F)c1 | inconclusive: 3.16 µM [activator, partial curve, poor fit] |  |
| COc1ccc(NS(=O)(=O)c2ccc(F)c(Cl)c2)cn1 | inconclusive: 11.2 µM [activator, partial curve, poor fit] |  |
| O=C1CCCC(O)=C1N=Nc1ccc(C(=O)O)cc1 | inconclusive: 5.01 µM [activator, single point] |  |
| CCNC(=S)N(CCc1c(C)[nH]c2ccc(Cl)cc12)Cc1ccco1 | inconclusive: 28.2 µM [activator, single point] |  |

Looked up one by one from the list above, two records:

| Compound | Potency | activation |
| --- | --- | --- |
| O=C1CCCC(O)=C1N=Nc1ccc(C(=O)O)cc1 | inconclusive: 5.01 µM [activator, single point] |  |
| CC(=O)N1C(=O)/C(=C2\SC(=S)N(NS(=O)(=O)c3ccc(C)cc3)C2=O)c2ccccc21 | inconclusive: 0.501 µM [activator, full curve, poor fit] |  |
